# Screening data, single-dose tests

Sequences of proteins named here, by UniProt entry; tags and fusion partners are left off.
UniProt P9WFT3, whole entry: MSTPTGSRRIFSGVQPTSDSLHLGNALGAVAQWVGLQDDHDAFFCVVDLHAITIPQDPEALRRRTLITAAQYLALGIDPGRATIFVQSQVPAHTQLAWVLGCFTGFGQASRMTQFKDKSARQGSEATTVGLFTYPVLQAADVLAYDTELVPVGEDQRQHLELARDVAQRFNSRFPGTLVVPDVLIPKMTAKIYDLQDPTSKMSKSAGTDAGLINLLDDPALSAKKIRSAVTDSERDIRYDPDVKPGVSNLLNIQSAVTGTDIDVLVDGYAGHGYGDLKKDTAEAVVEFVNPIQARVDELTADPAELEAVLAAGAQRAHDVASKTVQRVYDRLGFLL

From ChEMBL document CHEMBL3988442, “University of Dundee, Small-Polar-MMV Screening Library” (2021).

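Enzyme assay of tryptophanyl-tRNA synthetase; the read-out is not stated. Target: Tryptophan-tRNA ligase, Mycobacterium tuberculosis (UniProt P9WFT3). Tested at 10 µM. Higher most likely means stronger inhibition; the record gives no direction and few retests gave an IC50. Of about 65,000 compounds tested this way, about 64 (0.098%) reached 50% or more in at least one test.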

Each number is a percent effect as filed.
The controls that fix the scale are not given in the record; negative values are as filed.
The compounds are a random part of those screened.

O=C(O)[C@H]1C[C@@H](C(=O)NCc2ccncc2)CN(Cc2ccccc2)C1 read 3.485%. Result for CN1CCc2nc(C3CCCN(S(=O)(=O)N4CCCC4)C3)ncc2C1 (stereo not given) was -5.937%. With CC(C)Cn1cncc1CNC1CCCNC1 (stereo not given) the screen gave -0.3974%. For COC1CCN(CCNC(=O)NC(C)c2ccc(F)c(F)c2)CC1 (stereo not given) the result was 6.989%.

For Cc1cc(C(=O)N2CCc3nnc(N(C)C)cc3C2)c(C)n1C1CC1 the result was -0.4873%. Result for CCOc1cccc(C(C)NC(=O)N2CCC(C(N)=O)CC2)c1 (stereo not given) was -3.947%. COCCNC(=O)C1CCCN(c2ccc3nncn3n2)C1 (stereo not given) gave 1.854%. For CC(C(=O)NN1CCOCC1)n1nc(C(F)(F)F)c(Cl)c1C1CC1 (stereo not given) the result was -2.581%.

Result for Cc1nc[nH]c1CN1C[C@@H]2CC[C@H](C1)N(C(=O)CCNS(C)(=O)=O)C2 was 7.583%. Result for CC1CCN(CCNC(=O)C2CCN(C(=O)NC(C)C)CC2)CC1 was -2.381%. O=C(CN1CCCCC1Cn1cccn1)NC1CCN(C2CC2)CC1 (stereo not given) gave -3.638%. With CN(C)C(=O)COC[C@H]1CC[C@@H]2[C@@H](CCN2Cc2ccccn2)O1 the screen gave -4.878%.

With Cc1ccc(-c2nc(CNCCn3cccn3)cs2)o1 the screen gave -2.516%. For Cc1nc(CN2CCCC2Cn2ccnc2C(C)C)nc2ccccc12 (stereo not given) the result was -0.3631%. Result for Cc1cc(CN(C)C(=O)c2ccc(C(F)(F)F)nc2)no1 was -0.7601%. CC(C)CCS(=O)(=O)N1CCCC(c2nncn2C(C)C)C1 (stereo not given) read 3.728%.

Result for CS(=O)(=O)CC1CCCN(C(=O)Cn2cccc(C(F)(F)F)c2=O)C1 (stereo not given) was 8.208%. CN(C)c1ncc(NC(=O)N2CCC(CN3CCCC3)C2)cn1 (stereo not given) read 1.5%. Result for Cc1cccc(CS(=O)(=O)CC(=O)N(C)Cc2ccccc2F)c1 was 0.08136%. Result for CCOc1cc2c(cc1CCC(=O)O)CCC2 was 0.8675%.

Result for CN1CCc2nc(C3CCCN(S(=O)(=O)c4ccccc4)C3)ncc2C1 (stereo not given) was -1.11%. Result for CCOC(=O)N1CCN(C(=O)C2Cc3ccccc3CN2C)CC1 (stereo not given) was 4.581%. For CCc1oc(C(=O)NC(C)c2ncn[nH]2)cc1CN1CCCC1 (stereo not given) the result was 3.213%. For Cc1nc[nH]c1CNC1CC(=O)N(CCc2cccc(Cl)c2)C1 (stereo not given) the result was 2.886%.

COCC(O)CN1CCC(NC(=O)c2cccc(C)c2)CC1 (stereo not given) read -1.312%. For CCn1c(SCC(N)=O)nnc1-c1csc2c1CCCC2 the result was 0.06473%. Cc1nc(-c2cc(C(=O)N3CCN(C)CC3)c3ccccn23)cn1C read -4.758%. For CCn1cncc1CN1CCc2nc3sccc3c(=O)n2CC1 the result was -12.07%.

With OCC1CCCN1c1cc(N2CCc3ccccc3C2)ncn1 (stereo not given) the screen gave 5.708%. CNCc1cn(C[C@H]2C[C@@H]3CCN2C[C@@H]3C(=O)NC2CCCCC2)nn1 read 0.8346%. With CC(C)CN1CCC2(CC1)C(=O)Nc1ccc(C(=O)NC(C)C)cc12 the screen gave -5.717%. CS(=O)(=O)NCCC(=O)N1Cc2cnc(-c3ccccc3)nc2C1 read 3.072%.

For Cc1cccc(CN2CC3(CCN(C(=O)C4CC4)CC3)OCC2=O)n1 the result was -7.169%. With O=c1cc(C2CCNCC2)nc(Cc2cccc(Cl)c2)[nH]1 the screen gave -3.769%. For FC1(F)CCN(Cc2ccncc2)CC12CCN(Cc1ccccn1)C2 (stereo not given) the result was -1.308%. CC(C)(O)CN1CCN(C(=O)C2CSc3ccccc3O2)CC1 (stereo not given) gave 0.09709%.

With Cc1cc(C)n(CCN(C)Cc2c[nH]nc2-c2ccc3c(c2)OCO3)n1 the screen gave 0.8777%. For CS(=O)(=O)Cc1ccc(C(=O)NCc2ccc(Cl)cc2Cl)cc1 the result was -3.571%. For Cc1oncc1C(=O)N1CCC2(CC1)CN(S(C)(=O)=O)c1ccccc12 the result was -6.105%. Cc1nc(C2CCCN2CC(=O)Nc2cc(C(C)(C)C)nn2C)no1 (stereo not given) gave -5.542%.

Cc1ccc(C(=O)N2CCC3(CCC(=O)N(CC(N)=O)C3)CC2)cc1 read -0.7638%. Cc1nc(CSCCC(=O)NCCNC(=O)OC(C)(C)C)cs1 read -2.082%.

Once more, the final 4:

{"compound": "Cc1oncc1C(=O)N1CCC2(CC1)CN(S(C)(=O)=O)c1ccccc12", "effect": -6.105}
{"compound": "Cc1nc(C2CCCN2CC(=O)Nc2cc(C(C)(C)C)nn2C)no1", "stereo": "stereo not given", "effect": -5.542}
{"compound": "Cc1ccc(C(=O)N2CCC3(CCC(=O)N(CC(N)=O)C3)CC2)cc1", "effect": -0.7638}
{"compound": "Cc1nc(CSCCC(=O)NCCNC(=O)OC(C)(C)C)cs1", "effect": -2.082}